# This is one part of the list. Further columns of the screen follow, without active or inactive calls. The list favours compounds with an active or inconclusive main result. The note in brackets gives the kind of curve behind each potency; many fits are weak.
# Assay: qHTS Assay for Lipid Storage Modulators in Drosophila S3 Cells;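 for cell number change: cells counted by Cell Tracker Red CMTPX staining in the red channel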
# Conditions: BODIPY lipid droplet fluorescence, 18-24 h; for cell number change: measured here: cell count max response, cells fed with added oleic acid
# Procedure, shortened: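 Laser-scanning cytometry quantifies lipid droplet accumulation (500–530 nm total intensity; droplet/cell object ratio) in oleic acid-fed (400 uM added) Drosophila S3 cells treated with a concentration series. 20 uM Triacsin C defined 100% inhibition.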
# [1] = measured here: cell number channel AC50, cells fed with added oleic acid
# [2] = measured here: lipid fluorescence (Fed channel) AC50, cells fed with added oleic acid
Compound,cell number change,AC50 [1],AC50 [2]
Cc1ccc(OCC(=O)N(Cc2ccccc2)C(C)C)c([N+](=O)[O-])n1,89.9%,"920 nM [rising, full curve]",–
Cc1cc(C(=O)Nc2ccncc2)c2ccccc2n1,4.86%,–,"29100 nM [falling, single point]"
Cc1ccc(C(=O)Nc2cc(S(=O)(=O)N3CCOCC3)ccc2N2CCCC2)cc1,-8.3%,–,"6510 nM [falling, single point]"
Cc1nc2cc(NC(=O)c3ccc(N4C(=O)CCC4=O)cc3)ccc2s1,-10.7%,"4.61 nM [falling, full curve, poor fit]","820 nM [falling, single point]"
Cc1nc2cc(C(F)(F)F)ccc2n1CCNc1nc(-c2ccc([N+](=O)[O-])c(Cl)c2)cs1,-10.2%,–,"29100 nM [falling, single point]"
COc1ccc(-c2nc(-c3ccc(O)cc3O)cs2)cc1OC,-31.4%,"29100 nM [falling, single point]","18400 nM [falling, single point]"
CN(C)c1cccc(C(=O)NNC(=O)CSc2ccccc2)c1,13%,–,"3260 nM [rising, full curve, poor fit]"
Cc1c(Cl)cnc(NC(=O)COC(=O)CCS(=O)(=O)c2ccccc2)c1Cl,-23%,"2910 nM [rising, single point]",–
Nc1ccc(NC(=O)c2ccccc2)c2c1C(=O)c1ccccc1C2=O,-15.9%,–,–
O=C(Cn1c(=O)oc2cc(S(=O)(=O)N3CCCCC3)ccc21)N1CCc2ccccc21,-86.9%,"23100 nM [falling, partial curve]","1460 nM [falling, full curve]"
CCc1ccc(CC)c(S(=O)(=O)Nc2ccc(O)c(C(=O)O)c2)c1,-52.2%,"18400 nM [falling, partial curve, poor fit]","5170 nM [falling, partial curve]"
O=C(C(Cl)c1ccccc1)N1CCOCC1 (stereo unspecified),26.1%,–,"580 nM [rising, single point]"
CCOC1=NN(c2ncc(C(F)(F)F)cc2Cl)C(=O)C1,-42.1%,–,"25900 nM [falling, single point]"
CCOC(=O)c1c(C)[nH]c(C(=O)N2CCN(CC)CC2)c1C,3.42%,–,–
O=C(OCCc1cc2ccccc2c(=O)o1)c1ccc(F)cc1,-33.5%,"1840 nM [falling, partial curve, poor fit]","4110 nM [falling, partial curve, poor fit]"
COCc1cc(C)nc(N2CCN(c3ccccc3)CC2)c1C#N,36.1%,"517 nM [rising, full curve, poor fit]",–
COc1cc(OC)c2c(C)c(Cl)c(=O)oc2c1,4.35%,–,–
Cc1nc(SCC(=O)N2CCN(C(=O)c3ccco3)CC2)c2c(C)c(C)sc2n1,-18.5%,–,"1840 nM [rising, single point]"
Nc1c(C(=O)Nc2nc3ccccc3s2)sc2nc(-c3cccs3)ccc12,-49.3%,"2060 nM [falling, full curve, poor fit]","1640 nM [falling, full curve]"
CCCCCn1c(N)c(-c2nc3ccccc3s2)c2c([N+](=O)[O-])nn(CC)c(=O)c21,–,"4.61 nM [rising, full curve, poor fit]",–

Compound,cell number change,AC50 [1],AC50 [2]
CCCc1nc(SCC(=O)N2CCCC2)c2c(=O)n(C)c(=O)n(C)c2n1,-39.3%,"8200 nM [falling, partial curve, poor fit]","5170 nM [falling, full curve]"
Cc1c(NC(=S)NC(=O)c2sc3ccccc3c2Cl)cccc1C(=O)O,8.98%,–,–
COc1ccc(/C=C/C(=O)Oc2ccc(C)cc2)cc1,10.5%,–,"2910 nM [falling, single point]"
CN(C)CCN(C(=O)CCS(=O)(=O)c1ccccc1)c1nc2cc3c(cc2s1)OCO3,-6.74%,–,"1840 nM [falling, full curve]"
CCOC(=O)/C=C1\SCC(=O)N1CC(=O)Nc1ccc(OC)c(OC)c1,57.2%,"16400 nM [rising, single point]",–
Cc1cc(NCC(C)C)n2ncnc2n1,-66.9%,"29100 nM [falling, single point]","18400 nM [falling, partial curve]"
COc1ccc(-c2nnn(CC(=O)N(C3CCCCC3)C(C)C(=O)NC3CCCC3)n2)cc1OC (stereo unspecified),11.2%,–,"2310 nM [rising, full curve]"
Cc1cc(C(=O)CSc2nc(N)cc(=O)[nH]2)c(C)n1-c1ccc(OC(F)F)cc1,-99.5%,"29100 nM [falling, single point]",–
O=C(NCc1ccccn1)c1cc2c(ccc3ccccc32)oc1=O,34.8%,"31600 nM [rising, single point]","35500 nM [rising, single point]"
COCCn1c(SCc2nc3sc(C(=O)OC)c(C)c3c(=O)[nH]2)nc2ccccc21,6.14%,–,"4110 nM [falling, partial curve]"
O=C(Nc1ccccc1OC(F)F)C1CCCN1C(=O)c1cccs1 (stereo unspecified),0.627%,–,–
COC(=O)C(NNc1ccccc1)(NC(=O)c1ccccc1F)C(F)(F)F (stereo unspecified),6.84%,–,"4.61 nM [rising, full curve, poor fit]"
CCOCCc1nnc(NC(=O)Cc2ccccc2)s1,–,–,"6510 nM [falling, single point]"
CSc1nc(-c2ccccc2)nn1S(=O)(=O)c1ccc(Cl)cc1,-0.45%,–,"130 nM [falling, full curve, poor fit]"
Cc1nn(Cc2c(F)c(F)c(F)c(F)c2F)c(C)c1NC(=O)c1c([N+](=O)[O-])cnn1C,19.4%,–,"2910 nM [rising, partial curve]"
CCCCCC(=O)Nc1ccc2oc(-c3ccncc3)nc2c1,1.54%,–,–
COc1cc(NC(=O)C2CCN(S(=O)(=O)c3cccc4nonc34)CC2)cc(OC)c1,-8.62%,–,"92 nM [rising, partial curve, poor fit]"
O=C(CSc1nnc(-c2ccncc2)n1CC1CCCO1)NCc1ccccc1 (stereo unspecified),19%,–,–
Cc1cc(N)n(-c2ccc(Cl)cc2)n1,-7.01%,–,"355 nM [rising, full curve, poor fit]"
COc1ccc(NC(=S)Nc2cccc3cnccc23)cc1,-4.1%,–,"92 nM [rising, full curve, poor fit]"

# Exported as tab-separated lines: 12 of the compounds above
Compound	cell number change	AC50 [1]	AC50 [2]
Cc1c(NC(=S)NC(=O)c2sc3ccccc3c2Cl)cccc1C(=O)O	8.98%	–	–
COc1ccc(/C=C/C(=O)Oc2ccc(C)cc2)cc1	10.5%	–	2910 nM [falling, single point]
CN(C)CCN(C(=O)CCS(=O)(=O)c1ccccc1)c1nc2cc3c(cc2s1)OCO3	-6.74%	–	1840 nM [falling, full curve]
CCOC(=O)/C=C1\SCC(=O)N1CC(=O)Nc1ccc(OC)c(OC)c1	57.2%	16400 nM [rising, single point]	–
Cc1cc(NCC(C)C)n2ncnc2n1	-66.9%	29100 nM [falling, single point]	18400 nM [falling, partial curve]
COc1ccc(-c2nnn(CC(=O)N(C3CCCCC3)C(C)C(=O)NC3CCCC3)n2)cc1OC (stereo unspecified)	11.2%	–	2310 nM [rising, full curve]
Cc1cc(C(=O)CSc2nc(N)cc(=O)[nH]2)c(C)n1-c1ccc(OC(F)F)cc1	-99.5%	29100 nM [falling, single point]	–
O=C(NCc1ccccn1)c1cc2c(ccc3ccccc32)oc1=O	34.8%	31600 nM [rising, single point]	35500 nM [rising, single point]
COCCn1c(SCc2nc3sc(C(=O)OC)c(C)c3c(=O)[nH]2)nc2ccccc21	6.14%	–	4110 nM [falling, partial curve]
O=C(Nc1ccccc1OC(F)F)C1CCCN1C(=O)c1cccs1 (stereo unspecified)	0.627%	–	–
COC(=O)C(NNc1ccccc1)(NC(=O)c1ccccc1F)C(F)(F)F (stereo unspecified)	6.84%	–	4.61 nM [rising, full curve, poor fit]
CCOCCc1nnc(NC(=O)Cc2ccccc2)s1	–	–	6510 nM [falling, single point]

# (listing goes on)

Compound,cell number change,AC50 [1],AC50 [2]
COc1ccc(NS(=O)(=O)c2ccc(NC(=O)c3ccccc3)cc2)nn1,34.5%,"18400 nM [rising, single point]","29100 nM [rising, single point]"
CCCCn1c(NCCC)nc2c1c(=O)[nH]c(=O)n2C,5.62%,–,–
Cn1c(SCC(=O)N2CCCCC2)nc2c([nH]c3ccccc32)c1=O,–,"92 nM [rising, partial curve]","51.7 nM [rising, full curve, poor fit]"
CCSc1nnc(-c2ccc(S(=O)(=O)NCc3cccs3)cc2)o1,-26.7%,"6510 nM [falling, partial curve, poor fit]","16400 nM [rising, single point]"
COc1ccc(C(C(=O)NC2CCCC2)N(CCCO)C(=O)c2snc(C(N)=O)c2N)cc1 (stereo unspecified),–,–,"580 nM [rising, single point]"
CC(=O)C(Sc1nc(N(C)C)nc(N(C)C)n1)C(=O)Nc1ccccc1 (stereo unspecified),-35%,–,–
COc1ccc(CSCC(=O)Nc2ccccc2SC)cc1,19.9%,–,"23100 nM [rising, single point]"
Cc1cccc(S(=O)(=O)NCC2CCCO2)c1 (stereo unspecified),14.3%,–,–
COC(=O)c1cc2ccccn2c2c(C(=O)OC)c(C(=O)OC)cc1-2,28.4%,"461 nM [rising, full curve, poor fit]","651 nM [rising, partial curve, poor fit]"
NC(=O)c1cc([N+](=O)[O-])ccc1NCc1ccc(O)cc1,-22.1%,–,–
COc1ccccc1NC(=S)NCc1ccc2c(c1)OCO2,3.18%,–,"9200 nM [rising, single point]"
CC1(C)C2CCC1(CS(=O)(=O)N1CCN(c3ccc(F)cc3)CC1)C(=O)C2 (stereo unspecified),-30.2%,"1840 nM [falling, full curve, poor fit]","6510 nM [falling, single point]"
CCOC(=O)C1CCN(C(=O)COC(=O)c2ccc3c(c2)C(=O)N(c2ccc(OCC)cc2)C3=O)CC1,–,"731 nM [rising, single point]","580 nM [rising, single point]"
COCCNC(=O)C(c1ccc(C)cc1)N(C(=O)CCC(=O)Nc1ccccn1)c1ccc(F)cc1 (stereo unspecified),-21.1%,–,–
CC(=O)O/N=C/c1c(Cl)n(C)c2ccccc12,9.12%,–,"651 nM [falling, single point]"
Cc1ccc(S(=O)(=O)N2CCN(C)CC2)c(C)c1N(C)S(=O)(=O)c1ccc(Cl)cc1,9.44%,–,–
Cc1cccc(C(=O)O/N=C(\N)c2ccc(Br)cc2)c1,–,"164 nM [rising, full curve, poor fit]",–
CCn1c(SCC(=O)N(C)CC(=O)Nc2ccc(F)c(F)c2F)nnc1-c1ccco1,35.2%,"13000 nM [rising, partial curve, poor fit]","29100 nM [rising, single point]"
O=C(c1cc(-c2ccc(Cl)cc2)on1)N1CCOCC1,-82.7%,"29100 nM [falling, partial curve, poor fit]","651 nM [falling, single point]"
